Results published in paper doi:10.1101/2022.11.24.517835.
Like-named read-outs stand apart in the source and are kept apart here. Results are given in words; binding and its absence hold for the method and conditions named. In cells and extracts the contact can be indirect. These calls come from enrichment with a bait or labelling near it, and not all partners need be listed. For part of these data: A no says only that the protein was not detected with the bait. For part of these data: Sequences can lack the tags named with a protein.

The chains behind the UniProt entries cited, without tags or fusion partners. Where a name states a change or a piece, a line headed by the entry shows the natural chain unless it says otherwise.
UniProt Q6EVK6: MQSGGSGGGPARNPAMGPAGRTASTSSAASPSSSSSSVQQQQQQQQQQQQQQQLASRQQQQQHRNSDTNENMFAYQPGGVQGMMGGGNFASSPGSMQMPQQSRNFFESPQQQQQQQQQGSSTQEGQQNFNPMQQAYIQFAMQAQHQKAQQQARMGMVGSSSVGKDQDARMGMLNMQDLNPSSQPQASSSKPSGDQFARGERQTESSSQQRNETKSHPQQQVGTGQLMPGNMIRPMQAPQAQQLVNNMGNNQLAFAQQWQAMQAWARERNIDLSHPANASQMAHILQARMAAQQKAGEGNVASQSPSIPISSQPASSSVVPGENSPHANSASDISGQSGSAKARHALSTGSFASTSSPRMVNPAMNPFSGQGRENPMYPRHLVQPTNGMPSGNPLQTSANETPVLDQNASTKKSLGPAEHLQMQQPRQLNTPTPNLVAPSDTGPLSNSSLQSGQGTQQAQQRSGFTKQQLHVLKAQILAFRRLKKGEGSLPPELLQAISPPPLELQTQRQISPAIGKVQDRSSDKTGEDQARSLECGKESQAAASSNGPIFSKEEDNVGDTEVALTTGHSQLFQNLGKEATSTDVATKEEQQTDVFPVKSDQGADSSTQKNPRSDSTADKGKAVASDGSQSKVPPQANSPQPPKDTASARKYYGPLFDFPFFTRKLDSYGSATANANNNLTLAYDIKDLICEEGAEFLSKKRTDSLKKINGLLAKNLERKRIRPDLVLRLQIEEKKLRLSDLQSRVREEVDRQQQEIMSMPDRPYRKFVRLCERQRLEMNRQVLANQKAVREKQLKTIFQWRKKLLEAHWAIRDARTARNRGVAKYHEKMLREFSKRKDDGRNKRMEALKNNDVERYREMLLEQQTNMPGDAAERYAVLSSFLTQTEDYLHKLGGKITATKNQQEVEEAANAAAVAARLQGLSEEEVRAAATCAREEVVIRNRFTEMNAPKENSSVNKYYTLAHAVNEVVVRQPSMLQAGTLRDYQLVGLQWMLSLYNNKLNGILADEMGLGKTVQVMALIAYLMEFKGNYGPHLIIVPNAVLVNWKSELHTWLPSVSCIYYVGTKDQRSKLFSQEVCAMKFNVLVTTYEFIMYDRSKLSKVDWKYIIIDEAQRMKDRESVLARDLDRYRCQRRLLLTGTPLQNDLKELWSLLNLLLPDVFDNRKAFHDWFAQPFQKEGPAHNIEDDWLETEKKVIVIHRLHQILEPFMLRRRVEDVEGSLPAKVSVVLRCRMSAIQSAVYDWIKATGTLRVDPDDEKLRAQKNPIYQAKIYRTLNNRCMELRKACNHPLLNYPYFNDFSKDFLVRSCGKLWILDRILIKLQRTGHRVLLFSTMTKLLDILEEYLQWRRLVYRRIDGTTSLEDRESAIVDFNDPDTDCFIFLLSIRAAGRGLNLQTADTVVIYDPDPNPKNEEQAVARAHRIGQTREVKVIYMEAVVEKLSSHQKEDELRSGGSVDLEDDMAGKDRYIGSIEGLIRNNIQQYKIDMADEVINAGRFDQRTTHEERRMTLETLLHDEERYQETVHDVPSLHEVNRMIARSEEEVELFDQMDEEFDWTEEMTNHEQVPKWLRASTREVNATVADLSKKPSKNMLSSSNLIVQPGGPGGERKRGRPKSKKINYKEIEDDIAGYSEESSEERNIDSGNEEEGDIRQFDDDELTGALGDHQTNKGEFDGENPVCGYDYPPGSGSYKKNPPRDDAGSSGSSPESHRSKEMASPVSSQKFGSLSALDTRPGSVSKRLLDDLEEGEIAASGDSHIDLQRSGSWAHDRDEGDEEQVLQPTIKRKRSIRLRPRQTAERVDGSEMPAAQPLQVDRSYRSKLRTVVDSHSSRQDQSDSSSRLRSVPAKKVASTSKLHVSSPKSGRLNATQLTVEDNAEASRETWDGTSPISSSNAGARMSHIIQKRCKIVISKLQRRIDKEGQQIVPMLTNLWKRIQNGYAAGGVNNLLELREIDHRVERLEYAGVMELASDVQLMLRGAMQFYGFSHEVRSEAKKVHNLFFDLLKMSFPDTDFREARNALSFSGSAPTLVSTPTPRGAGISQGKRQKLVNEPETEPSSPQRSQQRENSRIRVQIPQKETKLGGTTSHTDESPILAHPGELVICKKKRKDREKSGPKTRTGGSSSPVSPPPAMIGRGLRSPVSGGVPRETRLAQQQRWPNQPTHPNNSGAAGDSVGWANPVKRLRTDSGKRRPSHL
UniProt Q9FLP2: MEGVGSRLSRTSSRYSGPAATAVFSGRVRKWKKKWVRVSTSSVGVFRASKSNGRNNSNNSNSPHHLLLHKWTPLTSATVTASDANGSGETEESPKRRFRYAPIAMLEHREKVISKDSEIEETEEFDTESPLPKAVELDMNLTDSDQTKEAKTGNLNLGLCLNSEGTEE
UniProt Q9LF51: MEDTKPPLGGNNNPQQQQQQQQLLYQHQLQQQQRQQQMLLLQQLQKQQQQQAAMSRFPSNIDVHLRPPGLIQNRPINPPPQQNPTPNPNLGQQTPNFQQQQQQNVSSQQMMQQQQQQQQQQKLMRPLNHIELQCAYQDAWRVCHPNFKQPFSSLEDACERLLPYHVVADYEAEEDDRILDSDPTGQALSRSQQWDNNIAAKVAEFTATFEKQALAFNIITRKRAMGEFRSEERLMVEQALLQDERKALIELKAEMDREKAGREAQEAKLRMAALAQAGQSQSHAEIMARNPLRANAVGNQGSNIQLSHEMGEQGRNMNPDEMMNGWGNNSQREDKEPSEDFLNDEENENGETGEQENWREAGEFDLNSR
UniProt Q9C6P8: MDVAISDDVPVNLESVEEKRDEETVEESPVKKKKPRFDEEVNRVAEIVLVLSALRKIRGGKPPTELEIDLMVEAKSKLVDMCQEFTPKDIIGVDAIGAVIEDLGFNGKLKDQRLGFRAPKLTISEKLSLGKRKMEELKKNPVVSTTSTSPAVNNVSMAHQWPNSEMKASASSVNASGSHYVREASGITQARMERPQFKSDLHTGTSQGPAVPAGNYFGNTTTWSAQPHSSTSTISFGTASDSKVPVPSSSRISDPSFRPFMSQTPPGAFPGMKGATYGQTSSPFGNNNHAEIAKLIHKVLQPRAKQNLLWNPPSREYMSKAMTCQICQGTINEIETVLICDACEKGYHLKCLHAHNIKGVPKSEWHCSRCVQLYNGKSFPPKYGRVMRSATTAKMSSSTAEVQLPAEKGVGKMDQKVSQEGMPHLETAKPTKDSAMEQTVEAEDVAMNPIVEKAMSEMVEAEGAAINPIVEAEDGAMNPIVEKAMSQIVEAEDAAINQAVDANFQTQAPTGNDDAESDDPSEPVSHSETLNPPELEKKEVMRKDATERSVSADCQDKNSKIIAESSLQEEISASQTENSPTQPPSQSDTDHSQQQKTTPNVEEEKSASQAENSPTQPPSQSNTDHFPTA
UniProt Q9LPJ1: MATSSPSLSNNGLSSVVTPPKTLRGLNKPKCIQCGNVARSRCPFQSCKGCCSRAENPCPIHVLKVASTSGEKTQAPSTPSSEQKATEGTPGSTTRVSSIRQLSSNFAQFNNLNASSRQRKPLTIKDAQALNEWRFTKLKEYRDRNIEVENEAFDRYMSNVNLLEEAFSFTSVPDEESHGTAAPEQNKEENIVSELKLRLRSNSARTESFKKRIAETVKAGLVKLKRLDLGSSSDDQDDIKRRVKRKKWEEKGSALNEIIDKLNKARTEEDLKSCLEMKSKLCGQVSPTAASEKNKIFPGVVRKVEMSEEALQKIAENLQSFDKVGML
UniProt F4JBZ1: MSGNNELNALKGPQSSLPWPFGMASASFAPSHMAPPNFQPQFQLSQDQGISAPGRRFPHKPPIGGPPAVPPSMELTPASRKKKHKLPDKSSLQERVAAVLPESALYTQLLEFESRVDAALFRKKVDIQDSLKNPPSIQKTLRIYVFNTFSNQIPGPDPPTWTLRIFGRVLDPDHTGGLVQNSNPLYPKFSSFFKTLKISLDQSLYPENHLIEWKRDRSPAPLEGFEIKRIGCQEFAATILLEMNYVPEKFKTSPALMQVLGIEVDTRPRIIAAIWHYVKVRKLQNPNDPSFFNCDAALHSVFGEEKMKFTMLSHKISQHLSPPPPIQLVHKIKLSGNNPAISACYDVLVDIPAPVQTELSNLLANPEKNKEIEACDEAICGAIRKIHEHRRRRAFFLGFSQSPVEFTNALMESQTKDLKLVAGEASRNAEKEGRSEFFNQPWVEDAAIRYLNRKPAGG
UniProt Q9FMT4: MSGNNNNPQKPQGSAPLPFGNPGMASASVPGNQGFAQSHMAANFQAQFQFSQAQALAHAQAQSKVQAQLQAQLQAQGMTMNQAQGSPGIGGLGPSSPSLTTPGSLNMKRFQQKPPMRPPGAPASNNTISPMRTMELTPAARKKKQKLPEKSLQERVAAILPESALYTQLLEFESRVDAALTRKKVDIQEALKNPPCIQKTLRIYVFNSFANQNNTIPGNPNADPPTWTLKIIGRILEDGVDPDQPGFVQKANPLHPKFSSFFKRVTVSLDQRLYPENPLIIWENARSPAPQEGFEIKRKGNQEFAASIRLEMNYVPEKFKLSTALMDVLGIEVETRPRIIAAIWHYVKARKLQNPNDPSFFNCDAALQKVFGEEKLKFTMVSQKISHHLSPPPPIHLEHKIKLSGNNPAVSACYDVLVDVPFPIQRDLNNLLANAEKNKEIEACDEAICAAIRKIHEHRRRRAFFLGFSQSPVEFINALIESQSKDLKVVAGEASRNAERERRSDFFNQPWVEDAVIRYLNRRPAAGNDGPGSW
UniProt F4IX81: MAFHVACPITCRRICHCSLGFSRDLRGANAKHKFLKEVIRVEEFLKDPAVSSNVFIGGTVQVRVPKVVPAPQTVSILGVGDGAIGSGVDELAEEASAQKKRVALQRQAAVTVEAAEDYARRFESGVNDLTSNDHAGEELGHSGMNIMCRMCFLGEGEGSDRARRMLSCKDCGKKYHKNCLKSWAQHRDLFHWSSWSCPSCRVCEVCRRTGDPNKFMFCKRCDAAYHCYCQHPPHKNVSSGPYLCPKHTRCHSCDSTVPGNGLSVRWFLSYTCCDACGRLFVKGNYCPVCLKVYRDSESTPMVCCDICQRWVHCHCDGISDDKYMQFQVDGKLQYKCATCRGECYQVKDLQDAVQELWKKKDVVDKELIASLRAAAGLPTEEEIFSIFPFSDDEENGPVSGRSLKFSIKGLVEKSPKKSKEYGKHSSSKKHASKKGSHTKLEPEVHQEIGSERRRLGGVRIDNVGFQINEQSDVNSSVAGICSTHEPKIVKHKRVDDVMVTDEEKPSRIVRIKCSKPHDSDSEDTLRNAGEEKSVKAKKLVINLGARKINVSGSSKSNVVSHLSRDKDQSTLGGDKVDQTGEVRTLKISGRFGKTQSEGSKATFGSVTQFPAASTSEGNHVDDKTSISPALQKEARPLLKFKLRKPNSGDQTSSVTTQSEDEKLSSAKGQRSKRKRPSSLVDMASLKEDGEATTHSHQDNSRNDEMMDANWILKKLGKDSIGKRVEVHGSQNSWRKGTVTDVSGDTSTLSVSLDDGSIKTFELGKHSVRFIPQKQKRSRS
UniProt Q9LM88: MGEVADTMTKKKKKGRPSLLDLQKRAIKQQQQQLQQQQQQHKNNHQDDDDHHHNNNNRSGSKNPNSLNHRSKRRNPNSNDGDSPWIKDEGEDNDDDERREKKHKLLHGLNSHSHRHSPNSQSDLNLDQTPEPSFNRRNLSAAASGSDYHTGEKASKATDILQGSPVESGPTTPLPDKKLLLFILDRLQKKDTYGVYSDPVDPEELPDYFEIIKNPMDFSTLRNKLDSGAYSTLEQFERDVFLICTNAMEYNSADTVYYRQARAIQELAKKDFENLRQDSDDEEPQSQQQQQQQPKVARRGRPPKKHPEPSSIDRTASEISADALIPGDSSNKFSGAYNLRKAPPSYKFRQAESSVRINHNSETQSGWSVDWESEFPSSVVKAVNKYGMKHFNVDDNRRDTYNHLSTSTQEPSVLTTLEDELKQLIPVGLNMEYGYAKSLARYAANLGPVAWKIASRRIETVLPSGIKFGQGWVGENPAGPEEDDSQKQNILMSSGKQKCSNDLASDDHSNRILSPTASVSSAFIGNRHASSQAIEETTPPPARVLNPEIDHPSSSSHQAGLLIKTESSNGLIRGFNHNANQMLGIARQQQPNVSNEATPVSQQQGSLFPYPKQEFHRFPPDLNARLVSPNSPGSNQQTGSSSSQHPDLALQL

Tests used:
Assay in all cases: affinity purification with mass spectrometry
[1] = molecular target: T1, SWI3C-GFP (Arabidopsis thaliana) (UniProt Q9XI07)
T1 sequence: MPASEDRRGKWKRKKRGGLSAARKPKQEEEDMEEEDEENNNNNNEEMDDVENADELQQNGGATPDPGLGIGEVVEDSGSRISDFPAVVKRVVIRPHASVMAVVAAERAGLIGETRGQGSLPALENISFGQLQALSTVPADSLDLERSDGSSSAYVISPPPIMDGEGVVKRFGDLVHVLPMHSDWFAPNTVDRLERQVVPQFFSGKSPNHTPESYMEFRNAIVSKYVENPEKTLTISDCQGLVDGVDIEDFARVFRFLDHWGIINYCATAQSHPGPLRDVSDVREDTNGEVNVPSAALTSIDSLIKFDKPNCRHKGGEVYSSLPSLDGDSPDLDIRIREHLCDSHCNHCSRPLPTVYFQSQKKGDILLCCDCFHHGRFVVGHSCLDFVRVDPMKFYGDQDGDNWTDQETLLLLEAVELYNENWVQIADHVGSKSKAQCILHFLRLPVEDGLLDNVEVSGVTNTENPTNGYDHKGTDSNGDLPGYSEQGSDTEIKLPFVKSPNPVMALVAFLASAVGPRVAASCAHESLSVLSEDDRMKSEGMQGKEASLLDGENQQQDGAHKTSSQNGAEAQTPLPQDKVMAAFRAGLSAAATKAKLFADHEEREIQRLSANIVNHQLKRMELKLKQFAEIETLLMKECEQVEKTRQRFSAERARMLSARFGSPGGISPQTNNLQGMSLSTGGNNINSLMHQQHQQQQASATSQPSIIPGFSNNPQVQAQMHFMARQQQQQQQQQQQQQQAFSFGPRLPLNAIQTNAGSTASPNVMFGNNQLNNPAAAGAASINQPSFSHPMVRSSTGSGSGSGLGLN

[2] = molecular target: T1, SWI3C-GFP (Arabidopsis thaliana); remark: listed apart in the source
[3] = molecular target: BRAHMA (BRM)-GFP (Arabidopsis thaliana) (UniProt Q6EVK6)
[4] = molecular target: T2, MINUSCULE 2 (MINU2)-GFP (Arabidopsis thaliana) (UniProt F4K128)
T2 sequence: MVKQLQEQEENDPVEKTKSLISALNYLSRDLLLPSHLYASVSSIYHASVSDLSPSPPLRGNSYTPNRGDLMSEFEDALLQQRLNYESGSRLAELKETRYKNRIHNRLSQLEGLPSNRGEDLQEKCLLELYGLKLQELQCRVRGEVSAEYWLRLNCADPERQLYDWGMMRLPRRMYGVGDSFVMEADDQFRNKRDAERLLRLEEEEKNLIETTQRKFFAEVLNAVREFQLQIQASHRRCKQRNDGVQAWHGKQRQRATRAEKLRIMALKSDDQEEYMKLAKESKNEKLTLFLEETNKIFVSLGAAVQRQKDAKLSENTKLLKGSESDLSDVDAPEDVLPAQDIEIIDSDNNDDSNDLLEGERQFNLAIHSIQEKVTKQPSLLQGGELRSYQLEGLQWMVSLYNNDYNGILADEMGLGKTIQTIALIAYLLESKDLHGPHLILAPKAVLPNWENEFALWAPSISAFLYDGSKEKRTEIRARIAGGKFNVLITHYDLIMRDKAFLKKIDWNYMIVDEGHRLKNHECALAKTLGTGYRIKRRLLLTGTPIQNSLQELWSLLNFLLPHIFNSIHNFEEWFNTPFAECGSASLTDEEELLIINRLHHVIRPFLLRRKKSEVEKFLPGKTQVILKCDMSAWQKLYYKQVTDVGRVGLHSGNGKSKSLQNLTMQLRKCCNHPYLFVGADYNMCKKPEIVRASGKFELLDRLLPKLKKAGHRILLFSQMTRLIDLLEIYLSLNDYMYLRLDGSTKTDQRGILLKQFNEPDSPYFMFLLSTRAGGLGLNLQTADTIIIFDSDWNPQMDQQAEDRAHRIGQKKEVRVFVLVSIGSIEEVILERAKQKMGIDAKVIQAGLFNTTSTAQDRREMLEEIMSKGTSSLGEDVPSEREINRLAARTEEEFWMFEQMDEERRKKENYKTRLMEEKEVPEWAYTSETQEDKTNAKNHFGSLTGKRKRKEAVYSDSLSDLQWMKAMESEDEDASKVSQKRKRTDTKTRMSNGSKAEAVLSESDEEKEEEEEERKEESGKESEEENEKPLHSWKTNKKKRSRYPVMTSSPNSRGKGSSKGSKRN

[5] = molecular target: T2, MINUSCULE 2 (MINU2)-GFP (Arabidopsis thaliana); remark: listed apart in the source

BCL7A
binding [1]: binds | binding [2]: binds weakly

BCL7B (from UniProt Q9FLP2)
binding [3]: binds | binding [1]: binds | binding [4]: binds | binding [2]: binds weakly

BRD5
binding [4]: binds

BRM-interacting protein 1 (BRIP1) (from UniProt Q9SRQ0)
binding [3]: binds | binding [1]: binds | binding [4]: no binding

BRM-interacting protein 2 (BRIP2) (from UniProt Q9LF51)
binding [3]: binds | binding [1]: binds | binding [4]: no binding

OPF1 (from UniProt Q9C6P8)
binding [4]: binds

PSA1 (from UniProt Q9LPJ1)
binding [4]: binds

SWI/SNF associated protein 73A (SWP73A) (from UniProt F4JBZ1)
binding [3]: binds | binding [4]: no binding

SWI/SNF associated protein 73B (SWP73B) (from UniProt Q9FMT4)
binding [3]: binds | binding [1]: binds | binding [4]: binds

TPF1
binding [4]: binds

TPF2 (from UniProt F4IX81)
binding [4]: binds

bromodomain-containing protein BRD1 (from UniProt Q9LM88)
binding [3]: binds | binding [1]: binds | binding [4]: no binding

bromodomain-containing protein BRD2
binding [4]: no binding

bromodomain-containing protein BRD13 (from UniProt F4K3B4)
binding [3]: binds | binding [1]: binds | binding [4]: no binding

B1: BUSHY (BSH) (protein, UniProt P93045 1-240)
chain: MKGLVSTGWKGPVKFRMPTAENLVPIRLDIQFEGQRYKDAFTWNPSDPDNEVVIFAKRTVKDLKLPYAFVTQIAQSIQSQLSDFRAYEGQDMYTGEKIIPIKLDLRVNHTLIKDQFLWDLNNFESDPEEFARTLCKDLGVEDPEVGPAVAFAIREQLYEIAIQSVASARESRLSKKGRRGSDHGSASKASGLSMDLMKLFSFKSSVVRKRKDLDVYEPVVDLLTSEEVDALEAREERHAR
binding [5]: binds

B2: SHH2 (protein, UniProt Q8RWJ7 1-348)
chain: MGRPPSNGGPAFRFILPEVTEMEAILLQHNTAMPGRHILEALADKFSESPERKGKVVVQFKQIWNWFQNRRYALRARGNKAPGKLNVSSMPRMDLPNQMRSVIQPLSVPKTTHMTGNLPGMTPAPSGSLVPGVMRSGSDNSYLEFEAKSARDGAWYDVQAFLAHRNLEIGDPEVQVRFAGFEVEEDEWINVKKHVRQRSLPCEASECVAVLAGDLVLCFQEGKDQALYFDAIVLDAQRRRHDVRGCRCRFLVRYSHDQSEEIVPLRKICRRPETDYRLQQLHNAVNDLANSNQHQIPALDAAAKTPLSLPGATVPIVAPESKDPSLSATPATLVQPSSNAATVPAGSA
binding [5]: binds

B3: OPF2 (protein, UniProt Q5PNS0 1-482)
chain: MHYSQTSSFGGNHTEIAKIIHKFLQPRVKQYPLWNPPSREYMSRAMACQICEVTINEMDTLLICDACEKAYHLKCLQGNNMKGVPKSEWHCSRCVQAFNGKPFPPTYGRATRAVATTTAKMPFRAAGVLSSSAKKIGPMDIKANQQKPIVSTFSRLQNTGLVSGAATTSQFESASVNAKTTASAAKTTNIGSQGSKENVACGANSPAPVSLTETPNRTGIASTISVINNGLISKPLTPVGTMSSTSPLPVVNQLPVNATSNASPSTPITASLVAQAPTVTQNGDGSSTASGTADHSILNADITTQVHTLTVTSSSNSQQAVSHSEVAKATEDAAPLENVSECEKPSESTSHPDSLNDKTISENVQESSKDAKVDSEACQNHPTASPATVVPDQDSTITAAPSVTQEDSAFNTEKTPPQPLSVSSNYDSQTEKETPNVQDSVHNVPGDSEKGKGLNGLDDRHQEQPSEPEFYKSDSVKEENAA
binding [5]: binds

B4: SWI3D (protein, UniProt Q8VY05 1-985)
chain: MEEKRRDSAGTLAFAGSSGDSPASEPMPAPRRRGGGLKRKANALGGSNFFSSAPSKRMLTREKAMLASFSPVHNGPLTRARQAPSIMPSAADGVKSEVLNVAVGADGEKPKEEEERNKAIREWEALEAKIEADFEAIRSRDSNVHVVPNHCGWFSWEKIHPLEERSLPSFFNGKLEGRTSEVYREIRNWIMGKFHSNPNIQIELKDLTELEVGDSEAKQEVMEFLDYWGLINFHPFPPTDTGSTASDHDDLGDKESLLNSLYRFQVDEACPPLVHKPRFTAQATPSGLFPDPMAADELLKQEGPAVEYHCNSCSADCSRKRYHCPKQADFDLCTECFNSGKFSSDMSSSDFILMEPAEAPGVGSGKWTDQETLLLLEALEIFKENWNEIAEHVATKTKAQCMLHFLQMPIEDAFLDQIDYKDPISKDTTDLAVSKDDNSVLKDAPEEAENKKRVDEDETMKEVPEPEDGNEEKVSQESSKPGDASEETNEMEAEQKTPKLETAIEERCKDEADENIALKALTEAFEDVGHSSTPEASFSFADLGNPVMGLAAFLVRLAGSDVATASARASIKSLHSNSGMLLATRHCYILEDPPDNKKDPTKSKSCSADAEGNDDNSHKDDQPEEKSKKAEEVSLNSDDREMPDTDTGKETQDSVSEEKQPGSRTENSTTKLDAVQEKRSSKPVTTDNSEKPVDIICPSQDKCSGKELQEPLKDGNKLSSENKDASQSTVSQSAADASQPEASRDVEMKDTLQSEKDPEDVVKTVGEKVQLAKEEGANDVLSTPDKSVSQQPIGSASAPENGTAGGNPNIEGKKEKDICEGTKDKYNIEKLKRAAISAISAAAVKAKNLAKQEEDQIRQLSGSLIEKQLHKLEAKLSIFNEAESLTMRVREQLERSRQRLYHERAQIIAARLGVPPSMSSKASLPTNRIAANFANVAQRPPMGMAFPRPPMPRPPGFPVPGSFVAATTMTGSSDPSPGSDNVSSV
binding [5]: no binding
